Results are given in words; binding and its absence hold for the method and conditions named. Some entries that bind do so weakly or less than the wild type. Sequences can lack the tags named with a protein.
Tests used:
[1] = molecular target: HDM2 N-terminal domain (NTD; the region from 1st to 125th amino acids of NP_002383.2) (human) (UniProt Q00987); assay: ELISA; HDM2 NTD coated on plate, GST fusion at 0-5.5 uM, anti-GST-HRP detection (FIG. 5)
[2] = molecular target: T1, HDMX N-terminal domain (NTD; the region from 1st to 132nd amino acids of NP_001191100.1) (human) (UniProt O15151); assay: ELISA; HDMX NTD coated on plate, GST fusion at 0-5.5 uM, anti-GST-HRP detection (FIG. 3)
T1 sequence (looked up): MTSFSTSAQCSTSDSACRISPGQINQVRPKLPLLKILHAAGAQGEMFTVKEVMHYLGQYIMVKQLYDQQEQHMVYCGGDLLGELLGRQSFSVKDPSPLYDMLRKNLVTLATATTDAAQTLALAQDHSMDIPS

Protein sequences, listed by entry. Tags and fused reporters are not part of them. Residues count along the entry.
UniProt Q00987, residues 1-125: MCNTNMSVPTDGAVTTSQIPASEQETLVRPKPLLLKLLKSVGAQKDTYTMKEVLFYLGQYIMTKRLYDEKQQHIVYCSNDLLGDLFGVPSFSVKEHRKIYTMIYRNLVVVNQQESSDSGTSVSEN

B1: GST-M11 (modified three-helix bundle protein M11, an a3D variant, fused to GST) (designed binder, not shown: a dimerising Fc or GST; large carriers; small tags and cut ends)
chain: MGSWAEFSQRLFAIYWRLLALGGSEAELAAFEKEIAAFESELQAYKGKGNPEVEALRKEAAAIRDELQAYRHN
With B1 the binding [1] was “binds” and the binding [2] was “binds”.

B2: GST-M25 (modified three-helix bundle protein M25, an a3D variant, fused to GST) (designed binder, not shown: a dimerising Fc or GST; large carriers; small tags and cut ends)
chain: MGSWFEFAWRLLEIKTRLQALGGSEAELAAFEKEIAAFESELQAYKGKGNPEVEALRFEAYWIRLELQAYRHN
In the case of B2, the binding [1] is reported as “binds” and the binding [2] is reported as “binds”.

Source: patent US20160311878A1
